Test results published in the supplement of paper PMC7661543.
± gives the standard deviation of the averaged measurements. The effect of the compound repeats well; differences between the knockouts mostly do not.

Experiments:
[1] = system: HCC-38; assay: relative cell number vs DMSO control (72 h) (% of DMSO); higher = less growth inhibition (more cells)
Description: (§1)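 QMAP-Seq: a pool of 5 breast cancer cell lines (ZR-75-1, SKBR3, HCC-38, MDA-MB-231, BT-20), each carrying 12 doxycycline-inducible Cas9 sgRNA perturbations (11 knockouts plus non-targeting sgNT), was treated with compounds for 72 h at four 10-fold doses (10 nM-10 uM or 1 nM-1 uM range). Barcodes were amplified and sequenced, and cell number was interpolated from 293T spike-in standard curves. The result is expressed as % of the median of DMSO wells. Two biological replicates.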

[2] = system: BT-20; assay: as above
Description: as §1

[3] = sgRNA knockout: sgATF3, 1000 nM
[4] = sgRNA knockout: sgATF3, 10000 nM
[5] = sgRNA knockout: sgATF4, 1000 nM
[6] = sgRNA knockout: sgATF4, 10000 nM
[7] = sgRNA knockout: sgATF6, 1000 nM
[8] = sgRNA knockout: sgATF6, 10000 nM
[9] = sgRNA knockout: sgATG7, 1000 nM
[10] = sgRNA knockout: sgATG7, 10000 nM
[11] = sgRNA knockout: sgERN1, 1000 nM
[12] = sgRNA knockout: sgERN1, 10000 nM
[13] = sgRNA knockout: sgHSF1, 1000 nM
[14] = sgRNA knockout: sgHSF1, 10000 nM
[15] = sgRNA knockout: sgHSF2, 1000 nM
[16] = sgRNA knockout: sgHSF2, 10000 nM
[17] = sgRNA knockout: sgKEAP1, 100 nM
[18] = sgRNA knockout: sgKEAP1, 1000 nM
[19] = sgRNA knockout: sgKEAP1, 10000 nM
[20] = sgRNA knockout: sgNFE2L2, 10 nM
[21] = sgRNA knockout: sgNFE2L2, 100 nM
[22] = sgRNA knockout: sgNFE2L2, 1000 nM
[23] = sgRNA knockout: sgNFE2L2, 10000 nM
[24] = sgRNA knockout: sgSLC35F2, 10 nM
[25] = sgRNA knockout: sgSLC35F2, 100 nM
[26] = sgRNA knockout: sgSLC35F2, 1000 nM
[27] = sgRNA knockout: sgSLC35F2, 10000 nM
[28] = sgRNA knockout: sgXBP1, 1000 nM
[29] = sgRNA knockout: sgXBP1, 10000 nM

CS(=O)(=O)c1cccc(CNc2nc(Nc3ccc4c(c3)CCC(=O)N4)ncc2C(F)(F)F)c1
relative cell number ([1]; sgRNA knockout: sgATF3, 10 nM): 105 ± 32 | relative cell number ([1]; sgRNA knockout: sgATF3, 100 nM): 109 ± 3.9 | relative cell number [1, 3]: 91 ± 19 | relative cell number [1, 4]: 54.11 ± 0.09 | relative cell number ([1]; sgRNA knockout: sgATF4, 10 nM): 102 ± 24 | relative cell number ([1]; sgRNA knockout: sgATF4, 100 nM): 114 ± 14 | relative cell number [1, 5]: 89.6 ± 22 | relative cell number [1, 6]: 48.9 ± 5 | relative cell number ([1]; sgRNA knockout: sgATF6, 10 nM): 103 ± 25 | relative cell number ([1]; sgRNA knockout: sgATF6, 100 nM): 143.1 ± 0.74 | relative cell number [1, 7]: 114 ± 7.2 | relative cell number [1, 8]: 63.8 ± 7.1 | relative cell number ([1]; sgRNA knockout: sgATG7, 10 nM): 105 ± 27 | relative cell number ([1]; sgRNA knockout: sgATG7, 100 nM): 112 ± 7.5 | relative cell number [1, 9]: 92.7 ± 10 | relative cell number [1, 10]: 52 ± 0.55 | relative cell number ([1]; sgRNA knockout: sgERN1, 10 nM): 105 ± 30 | relative cell number ([1]; sgRNA knockout: sgERN1, 100 nM): 118 ± 9.3 | relative cell number [1, 11]: 93.2 ± 7.8 | relative cell number [1, 12]: 48.29 ± 0.054 | relative cell number ([1]; sgRNA knockout: sgHSF1, 10 nM): 106 ± 39 | relative cell number ([1]; sgRNA knockout: sgHSF1, 100 nM): 153 ± 4.2 | relative cell number [1, 13]: 115 ± 14 | relative cell number [1, 14]: 57.1 ± 11 | relative cell number ([1]; sgRNA knockout: sgHSF2, 10 nM): 114 ± 43 | relative cell number ([1]; sgRNA knockout: sgHSF2, 100 nM): 127 ± 6.6 | relative cell number [1, 15]: 96.6 ± 4.8 | relative cell number [1, 16]: 54.2 ± 1.8 | relative cell number ([1]; sgRNA knockout: sgKEAP1, 10 nM): 140 ± 30 | relative cell number [1, 17]: 152 ± 2.7 | relative cell number [1, 18]: 123 ± 15 | relative cell number [1, 19]: 67 ± 14 | relative cell number [1, 20]: 102 ± 25 | relative cell number [1, 21]: 110 ± 15 | relative cell number [1, 22]: 81.9 ± 13 | relative cell number [1, 23]: 48.5 ± 0.84 | relative cell number [1, 24]: 107 ± 36 | relative cell number [1, 25]: 108 ± 13 | relative cell number [1, 26]: 87.6 ± 13 | relative cell number [1, 27]: 52.4 ± 1.1 | relative cell number ([1]; sgRNA knockout: sgXBP1, 10 nM): 104 ± 23 | relative cell number ([1]; sgRNA knockout: sgXBP1, 100 nM): 114 ± 9.7 | relative cell number [1, 28]: 93.9 ± 17 | relative cell number [1, 29]: 54.6 ± 10 | relative cell number ([2]; sgRNA knockout: sgATF3, 10 nM): 104 ± 27 | relative cell number ([2]; sgRNA knockout: sgATF3, 100 nM): 129 ± 4.7 | relative cell number [2, 3]: 94.5 ± 12 | relative cell number [2, 4]: 58.9 ± 12 | relative cell number ([2]; sgRNA knockout: sgATF4, 10 nM): 101 ± 35 | relative cell number ([2]; sgRNA knockout: sgATF4, 100 nM): 137 ± 2.1 | relative cell number [2, 5]: 110 ± 17 | relative cell number [2, 6]: 61.5 ± 7.3 | relative cell number ([2]; sgRNA knockout: sgATF6, 10 nM): 96.3 ± 23 | relative cell number ([2]; sgRNA knockout: sgATF6, 100 nM): 107.02 ± 0.033 | relative cell number [2, 7]: 97.4 ± 9.1 | relative cell number [2, 8]: 56.6 ± 5.4 | relative cell number ([2]; sgRNA knockout: sgATG7, 10 nM): 111 ± 48 | relative cell number ([2]; sgRNA knockout: sgATG7, 100 nM): 124 ± 18 | relative cell number [2, 9]: 96.4 ± 6 | relative cell number [2, 10]: 59.9 ± 1.2 | relative cell number ([2]; sgRNA knockout: sgERN1, 10 nM): 96.5 ± 22 | relative cell number ([2]; sgRNA knockout: sgERN1, 100 nM): 125 ± 17 | relative cell number [2, 11]: 109 ± 9.4 | relative cell number [2, 12]: 65.7 ± 16 | relative cell number ([2]; sgRNA knockout: sgHSF1, 10 nM): 89.4 ± 17 | relative cell number ([2]; sgRNA knockout: sgHSF1, 100 nM): 115 ± 4.8 | relative cell number [2, 13]: 98.5 ± 2.8 | relative cell number [2, 14]: 64.2 ± 13 | relative cell number ([2]; sgRNA knockout: sgHSF2, 10 nM): 105 ± 29 | relative cell number ([2]; sgRNA knockout: sgHSF2, 100 nM): 115.8 ± 0.27 | relative cell number [2, 15]: 109 ± 9.8 | relative cell number [2, 16]: 76.4 ± 7 | relative cell number ([2]; sgRNA knockout: sgKEAP1, 10 nM): 98.8 ± 12 | relative cell number [2, 17]: 114 ± 17 | relative cell number [2, 18]: 95.5 ± 1.4 | relative cell number [2, 19]: 68 ± 2.1 | relative cell number [2, 20]: 127 ± 33 | relative cell number [2, 21]: 142 ± 22 | relative cell number [2, 22]: 115 ± 15 | relative cell number [2, 23]: 63.7 ± 7.9 | relative cell number [2, 24]: 107 ± 26 | relative cell number [2, 25]: 126.5 ± 0.78 | relative cell number [2, 26]: 108 ± 17 | relative cell number [2, 27]: 68.7 ± 2.6 | relative cell number ([2]; sgRNA knockout: sgXBP1, 10 nM): 99.8 ± 38 | relative cell number ([2]; sgRNA knockout: sgXBP1, 100 nM): 119 ± 20 | relative cell number [2, 28]: 101 ± 13 | relative cell number [2, 29]: 60.29 ± 0.43
